Some of the results follow.
What follows are sequences tested against OsWRKY34 (Oryza sativa, UniProt Q0JBA9 1-250) (assay: protein-binding microarray (RPBM); PBS, 2% BSA, 51.3 ng/ul salmon testes DNA, 50 uM zinc acetate, 200 nM TF, 25 C, 1 h; high values mean tight binding). Settings: protein: recombinant; tags: N-terminal polyhistidine and DsRed monomer fusion (pET32a); label: CyDye5-dUTP incorporated in the synthesized complementary strand; 3' TTTTT single-stranded linker to array surface; dsDNA, one strand shown.
How it was run: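 Using Ni–NTA, transcription factors fused N-terminally to polyhistidine and DsRed were purified after expression in E. coli BL21-CodonPlus. These were incubated at 200 nM with a blocked, double-stranded custom Agilent array for 1 h at 25 °C in a buffer containing 50 µM zinc acetate, and the array was washed. The binding signal is per-feature fluorescence intensity (arbitrary units) on an Axon 4000B scanner.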

Chains of the proteins cited; added tags and fusions are not shown.
UniProt Q0JBA9, entry or part of it: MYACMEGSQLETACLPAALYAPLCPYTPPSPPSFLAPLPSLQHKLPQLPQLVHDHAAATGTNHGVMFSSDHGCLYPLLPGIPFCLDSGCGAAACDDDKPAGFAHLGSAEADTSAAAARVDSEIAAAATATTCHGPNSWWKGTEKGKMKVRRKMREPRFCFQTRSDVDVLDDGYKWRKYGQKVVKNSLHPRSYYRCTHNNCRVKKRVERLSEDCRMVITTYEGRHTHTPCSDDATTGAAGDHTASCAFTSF

| Sequence | binding signal |
| --- | --- |
| GAGTTGGTAGTTGGCGGTTTCGGATAAGGATCCGATATTTCGGAGTCACCTAGTGCAG | 9610 fluorescence intensity (a.u.) |
| CCAAGCTCCACTATCCGGCTGCTGTCATTGGCTTCTCGGCCGGAGTCACCTAGTGCAG | 11800 fluorescence intensity (a.u.) |
| GCCGGAGGCCGGTTCCACTTGCACCAAACCGTACCAAACCCGGAGTCACCTAGTGCAG | 8080 fluorescence intensity (a.u.) |
| GTGATGAATTATTTTTGCCTTTCTTTTCTTTCTCCCTATCCGGAGTCACCTAGTGCAG | 9710 fluorescence intensity (a.u.) |
| GTGACTTTTGCCAACTAATTCTCCCGTACGCCCGAGATCCCGGAGTCACCTAGTGCAG | 11700 fluorescence intensity (a.u.) |
| TCTAAATTGTATTTCTATATGGACTCTGTTTTTCTTTTTCCGGAGTCACCTAGTGCAG | 8520 fluorescence intensity (a.u.) |
| GTGTCATTATCCCGTGTGTACTCCACTTGTGCCGAATATGCGGAGTCACCTAGTGCAG | 8270 fluorescence intensity (a.u.) |
| TTAGTTGAAGATCTCTTCGTTCTCAGTGTGTTCTTTTGGGCGGAGTCACCTAGTGCAG | 11200 fluorescence intensity (a.u.) |
| CTTCAAACTTTTAATTTTTCCGTCACATCGAACTTTTCTACGGAGTCACCTAGTGCAG | 9760 fluorescence intensity (a.u.) |
| CGTCGTTTAGTCTCCTCCCTATATATATTATTGGTATTGTCGGAGTCACCTAGTGCAG | 8040 fluorescence intensity (a.u.) |
| TGTGGCTGGATTTGTACTTGGATTGGATCTTCTCTTCAGTCGGAGTCACCTAGTGCAG | 11800 fluorescence intensity (a.u.) |
| CCTCCCGCCGCGCCTAAAACCTCGACACCTCACCCACCTCCGGAGTCACCTAGTGCAG | 9520 fluorescence intensity (a.u.) |
| TCTGCGCCTCAAATTTCCTTTCCTATGCCTGCAGCCTGTACGGAGTCACCTAGTGCAG | 8340 fluorescence intensity (a.u.) |
| TGGGAGGAGGGAGGGAGGAGGAGGGCGGAGATAGGTGGTGCGGAGTCACCTAGTGCAG | 11400 fluorescence intensity (a.u.) |
| AGTAGTACGTGCGGTTATGGGTTGGGCTGCTCGTTGGCCACGGAGTCACCTAGTGCAG | 13700 fluorescence intensity (a.u.) |
| TTCGAGCGCCCTTCTCGTTCGGTTCTTGCCTCTCCACCGCCGGAGTCACCTAGTGCAG | 9090 fluorescence intensity (a.u.) |
| ATTGGATCGATTTGTTCGTTGTTTTCATGGCGTTAATCTCCGGAGTCACCTAGTGCAG | 10200 fluorescence intensity (a.u.) |
| TGTCCGCCACGCTCTCGCCATCTGCCTGTACCACTAATCTCGGAGTCACCTAGTGCAG | 22500 fluorescence intensity (a.u.) |
| GCCGCTCTCATCTCTCTCGCTCTCTCCTGCCCGCCGCCTGCGGAGTCACCTAGTGCAG | 11700 fluorescence intensity (a.u.) |
| AATGTTTTTATTCGGGGTGTTATCCTTCTACCCATTAGGACGGAGTCACCTAGTGCAG | 8250 fluorescence intensity (a.u.) |
| ACTTCTCCTCGCCTCATCGCGACCTCTCCATCTCGCTCTCCGGAGTCACCTAGTGCAG | 8860 fluorescence intensity (a.u.) |

| Sequence | binding signal |
| --- | --- |
| TCATTATGGTGTTTCTTAATTGCTTTTTTCTTTTTATTATCGGAGTCACCTAGTGCAG | 8300 fluorescence intensity (a.u.) |
| CACTCTCTCTCTCTCTCTCTCTCTCTCTCTCTCTCTCCTACGGAGTCACCTAGTGCAG | 9390 fluorescence intensity (a.u.) |
| ATGTACGCCAACTTAATCTTCATCTTCATCAGTTTCGCCTCGGAGTCACCTAGTGCAG | 10600 fluorescence intensity (a.u.) |
| TCATTGCTTTACACCATTGTAATCCTTTGTCATTTACTTTCGGAGTCACCTAGTGCAG | 10400 fluorescence intensity (a.u.) |
| TGCTAGCCTTTTCATATTGAACTTCCACCTCTCCATGCATCGGAGTCACCTAGTGCAG | 10100 fluorescence intensity (a.u.) |
| GCCAAGACGCCCAAAGCACACACTCTCTCTCGCTGTCTTTCGGAGTCACCTAGTGCAG | 8490 fluorescence intensity (a.u.) |
| AACCGCCGACGACGCGCCCACCTCCTCTTCGCCGCCTCCGCGGAGTCACCTAGTGCAG | 9790 fluorescence intensity (a.u.) |
| GGGCTTATTTTTTTTTTTTAACTTTGTTATGCTCTAGAAACGGAGTCACCTAGTGCAG | 20100 fluorescence intensity (a.u.) |
| TGAACACGTACAGGTCTGTACCTTTTGCCGGTACTTTGCACGGAGTCACCTAGTGCAG | 8960 fluorescence intensity (a.u.) |
| TCGCTTCTTGTCTTCGCAACGTATCCTAGTTAACCCAAGTCGGAGTCACCTAGTGCAG | 9620 fluorescence intensity (a.u.) |
| CACCTCAGCATTCATCCCGCTTCCTCTGCTCTCTCTGGAACGGAGTCACCTAGTGCAG | 11100 fluorescence intensity (a.u.) |
| AACCCTCATCTACTTCTGGCCCTCTAAGAGTTCTCCACTACGGAGTCACCTAGTGCAG | 8400 fluorescence intensity (a.u.) |
| TCACACCTCCCAATCTCGTCCACAGCATACACACGTCTACCGGAGTCACCTAGTGCAG | 9320 fluorescence intensity (a.u.) |
| GTCGTCGTCTTCTTCCGCCGCGCGGCCCGGCCGCTGCCGGCGGAGTCACCTAGTGCAG | 8740 fluorescence intensity (a.u.) |
| ACATCAAAACTTTTCTACACACACAAATTTCCAACTTTTCCGGAGTCACCTAGTGCAG | 9930 fluorescence intensity (a.u.) |
| CATTGTCTTGCACTTTCCTAATTTACAACTGCTGCTAAAACGGAGTCACCTAGTGCAG | 8450 fluorescence intensity (a.u.) |
| AATCAGCATTTTAACTAACTTTTGCGCCGACATTTTTTTTCGGAGTCACCTAGTGCAG | 9600 fluorescence intensity (a.u.) |
| CAATCACTCCGGCTCATCTCCCCGCAAGCATCTCCGTCCTCGGAGTCACCTAGTGCAG | 8560 fluorescence intensity (a.u.) |
| TTCTTGCGTTGTTTTACCTGCGTCTTGTTCTTCTTGGGAGCGGAGTCACCTAGTGCAG | 9090 fluorescence intensity (a.u.) |
| CCATCTCCATCCCCGACCACCACTTCTTCTCCGGCGAGCTCGGAGTCACCTAGTGCAG | 8780 fluorescence intensity (a.u.) |
| GGCGCCGGCGCTAGCGCCCACGTCGGGGTTGGGGTTGGGGCGGAGTCACCTAGTGCAG | 16600 fluorescence intensity (a.u.) |

At a glance, some entries already given.

| Sequence | binding signal |
| --- | --- |
| CAATCACTCCGGCTCATCTCCCCGCAAGCATCTCCGTCCTCGGAGTCACCTAGTGCAG | 8560 fluorescence intensity (a.u.) |
| TTCTTGCGTTGTTTTACCTGCGTCTTGTTCTTCTTGGGAGCGGAGTCACCTAGTGCAG | 9090 fluorescence intensity (a.u.) |
| CCATCTCCATCCCCGACCACCACTTCTTCTCCGGCGAGCTCGGAGTCACCTAGTGCAG | 8780 fluorescence intensity (a.u.) |

Source: PMC7819943, “Rice protein-binding microarrays: a tool to detect cis-acting elements near promoter regions in rice”
